Earlier results, collected in patent US20020198176A1, “Treatment of psoriasis with matrix metalloproteinase inhibitors” (priority 2000, published 2002).
At least one compound was matched to its structure with a doubt left.

What was measured:
T lymphocyte = settings: dose-dependent
MMP = settings: literature report
MMP-2 mRNA = settings: cultured keratinocytes

CN(C)c1ccc(O)c2c1C[C@H]1C[C@H]3[C@H](N(C)C)C(O)=C(C(N)=O)C(=O)[C@@]3(O)C(O)=C1C2=O [minocycline]
inhibition of nitric oxide synthetase expression (nitric oxide synthetase): inhibit nitric oxide synthetase expression
inhibition of T lymphocyte proliferation (T lymphocyte): inhibits T lymphocyte proliferation
production of IL-2, IFN-δ and TNF-α (IL-2, IFN-δ and TNF-α): reduces the production

C[C@H]1c2cccc(O)c2C(=O)C2=C(O)[C@]3(O)C(=O)C(C(N)=O)=C(O)[C@@H](N(C)C)[C@@H]3[C@@H](O)[C@@H]21 [doxycycline]
inhibition of nitric oxide synthetase expression (nitric oxide synthetase): inhibit nitric oxide synthetase expression
inhibition of MMPs (MMP): inhibit MMPs
inhibition of MMP-2 mRNA production (MMP-2 mRNA): can inhibit MMP-2 mRNA production
inhibition of keratinocyte migration (keratinocyte): can inhibit keratinocyte migration
